Results are given in words; binding and its absence hold for the method and conditions named. In cells and extracts the contact can be indirect. Where a sequence is shown, tags or fusion partners need not be part of it.
What was measured:
[1] = biological target: T1, Buc-GFP, in vitro translated (wt Buc) (zebrafish) (UniProt H0WFA5); assay: pull-down; in vitro translated proteins diluted in YSS buffer, GFP fusions held on GFP Trap beads, Western blot
T1 sequence: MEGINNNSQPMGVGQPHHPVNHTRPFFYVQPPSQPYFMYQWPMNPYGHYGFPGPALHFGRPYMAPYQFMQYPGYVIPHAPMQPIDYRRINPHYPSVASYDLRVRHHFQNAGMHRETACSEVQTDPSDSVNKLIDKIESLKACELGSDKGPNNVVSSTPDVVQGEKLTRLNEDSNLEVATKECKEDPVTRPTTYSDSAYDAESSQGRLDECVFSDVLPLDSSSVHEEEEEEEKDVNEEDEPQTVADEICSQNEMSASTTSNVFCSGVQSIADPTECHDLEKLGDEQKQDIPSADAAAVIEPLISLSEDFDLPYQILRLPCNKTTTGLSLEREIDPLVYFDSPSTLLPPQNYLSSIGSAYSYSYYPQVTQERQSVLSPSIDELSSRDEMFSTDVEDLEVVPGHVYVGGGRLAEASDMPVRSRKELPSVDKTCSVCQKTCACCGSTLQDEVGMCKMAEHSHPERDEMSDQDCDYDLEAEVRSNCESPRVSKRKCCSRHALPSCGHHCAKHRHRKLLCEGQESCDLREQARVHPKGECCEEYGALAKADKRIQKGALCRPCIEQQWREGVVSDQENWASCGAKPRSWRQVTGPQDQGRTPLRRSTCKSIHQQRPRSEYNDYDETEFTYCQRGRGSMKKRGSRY

[2] = biological target: T2, Buc-VC (Buc fused to the C-terminal fragment of split Venus) (zebrafish) (UniProt H0WFA5); assay: split reporter; BiFC with split Venus (VN, VC); mRNAs (200 pg each) injected into one-cell zebrafish embryos, fluorescence imaged at 3 hpf
T2 sequence: T1 sequence

Substance | binding [1] | binding [2]
Myc-Non-muscle Myosin II (NMII; 20 kD), in vitro translated | no binding | –
VN-Venus fragment alone (N-terminal fragment of split Venus) (domain or fragment) | – | no binding

Source: publication PMC6219760
